Assay: Baseline fluorescence ratio Ro of probe in absence of analyte
Conditions: baseline fluorescence ratio of probe

Row | Molecule | Ro
1 | 72T 73W 74S (protein, listed as Rattus norvegicus, PEPTIDE (1)...(131) wild-type rat intestinal fatty acid binding protein) AFDGTWKVDRNENYEKFMEKMGINVVKRKLGAHDNLKLTITQEGNKFTVKESSNFRNIDVVFELGVDFAYSTWSGTELTGTWTMEGNKLVGKFKRVDNGKELIAVREISGNELIQTYTYEGVEAKRIFKKE | 0.574
2 | 72S 73W 74E (protein, listed as Rattus norvegicus, PEPTIDE (1)...(131) wild-type rat intestinal fatty acid binding protein) AFDGTWKVDRNENYEKFMEKMGINVVKRKLGAHDNLKLTITQEGNKFTVKESSNFRNIDVVFELGVDFAYSSWEGTELTGTWTMEGNKLVGKFKRVDNGKELIAVREISGNELIQTYTYEGVEAKRIFKKE | 0.520
3 | 72A 73W 74S (protein, listed as Rattus norvegicus, PEPTIDE (1)...(131) wild-type rat intestinal fatty acid binding protein) AFDGTWKVDRNENYEKFMEKMGINVVKRKLGAHDNLKLTITQEGNKFTVKESSNFRNIDVVFELGVDFAYSAWSGTELTGTWTMEGNKLVGKFKRVDNGKELIAVREISGNELIQTYTYEGVEAKRIFKKE | 0.353
4 | 72S 73W 74N (protein, listed as Rattus norvegicus, PEPTIDE (1)...(131) wild-type rat intestinal fatty acid binding protein) AFDGTWKVDRNENYEKFMEKMGINVVKRKLGAHDNLKLTITQEGNKFTVKESSNFRNIDVVFELGVDFAYSSWNGTELTGTWTMEGNKLVGKFKRVDNGKELIAVREISGNELIQTYTYEGVEAKRIFKKE | 0.639
5 | 72S 73W 74S (protein, listed as Rattus norvegicus, PEPTIDE (1)...(131) wild-type rat intestinal fatty acid binding protein) AFDGTWKVDRNENYEKFMEKMGINVVKRKLGAHDNLKLTITQEGNKFTVKESSNFRNIDVVFELGVDFAYSSWSGTELTGTWTMEGNKLVGKFKRVDNGKELIAVREISGNELIQTYTYEGVEAKRIFKKE | 0.597
6 | 73W 72A 74F (protein, listed as Rattus norvegicus, PEPTIDE (1)...(131) wild-type rat intestinal fatty acid binding protein) AFDGTWKVDRNENYEKFMEKMGINVVKRKLGAHDNLKLTITQEGNKFTVKESSNFRNIDVVFELGVDFAYSAWFGTELTGTWTMEGNKLVGKFKRVDNGKELIAVREISGNELIQTYTYEGVEAKRIFKKE | 0.567
7 | 72T 73W 74E (protein, listed as Rattus norvegicus, PEPTIDE (1)...(131) wild-type rat intestinal fatty acid binding protein) AFDGTWKVDRNENYEKFMEKMGINVVKRKLGAHDNLKLTITQEGNKFTVKESSNFRNIDVVFELGVDFAYSTWEGTELTGTWTMEGNKLVGKFKRVDNGKELIAVREISGNELIQTYTYEGVEAKRIFKKE | 0.312
8 | 21F 78V 102V 72A (protein, listed as Rattus norvegicus, PEPTIDE (1)...(131) wild-type rat intestinal fatty acid binding protein) AFDGTWKVDRNENYEKFMEKFGINVVKRKLGAHDNLKLTITQEGNKFTVKESSNFRNIDVVFELGVDFAYSAADGTEVTGTWTMEGNKLVGKFKRVDNGKEVIAVREISGNELIQTYTYEGVEAKRIFKKE | 0.288
9 | 72T 74V (protein, listed as Rattus norvegicus, PEPTIDE (1)...(131) wild-type rat intestinal fatty acid binding protein) AFDGTWKVDRNENYEKFMEKMGINVVKRKLGAHDNLKLTITQEGNKFTVKESSNFRNIDVVFELGVDFAYSTAVGTELTGTWTMEGNKLVGKFKRVDNGKELIAVREISGNELIQTYTYEGVEAKRIFKKE | 0.249
10 | 72G 73W (protein, listed as Rattus norvegicus, PEPTIDE (1)...(131) wild-type rat intestinal fatty acid binding protein) AFDGTWKVDRNENYEKFMEKMGINVVKRKLGAHDNLKLTITQEGNKFTVKESSNFRNIDVVFELGVDFAYSGWDGTELTGTWTMEGNKLVGKFKRVDNGKELIAVREISGNELIQTYTYEGVEAKRIFKKE | 0.602
11 | 72T 73V 74V (protein, listed as Rattus norvegicus, PEPTIDE (1)...(131) wild-type rat intestinal fatty acid binding protein) AFDGTWKVDRNENYEKFMEKMGINVVKRKLGAHDNLKLTITQEGNKFTVKESSNFRNIDVVFELGVDFAYSTVVGTELTGTWTMEGNKLVGKFKRVDNGKELIAVREISGNELIQTYTYEGVEAKRIFKKE | 0.215
12 | 72T 73V 74L (protein, listed as Rattus norvegicus, PEPTIDE (1)...(131) wild-type rat intestinal fatty acid binding protein) AFDGTWKVDRNENYEKFMEKMGINVVKRKLGAHDNLKLTITQEGNKFTVKESSNFRNIDVVFELGVDFAYSTVLGTELTGTWTMEGNKLVGKFKRVDNGKELIAVREISGNELIQTYTYEGVEAKRIFKKE | 0.386
13 | 72W 73T 74G (protein, listed as Rattus norvegicus, PEPTIDE (1)...(131) wild-type rat intestinal fatty acid binding protein) AFDGTWKVDRNENYEKFMEKMGINVVKRKLGAHDNLKLTITQEGNKFTVKESSNFRNIDVVFELGVDFAYSWTGGTELTGTWTMEGNKLVGKFKRVDNGKELIAVREISGNELIQTYTYEGVEAKRIFKKE | 0.500
14 | 72S 73L 74A (protein, listed as Rattus norvegicus, PEPTIDE (1)...(131) wild-type rat intestinal fatty acid binding protein) AFDGTWKVDRNENYEKFMEKMGINVVKRKLGAHDNLKLTITQEGNKFTVKESSNFRNIDVVFELGVDFAYSSLAGTELTGTWTMEGNKLVGKFKRVDNGKELIAVREISGNELIQTYTYEGVEAKRIFKKE | 0.347
15 | 72T 74I (protein, listed as Rattus norvegicus, PEPTIDE (1)...(131) wild-type rat intestinal fatty acid binding protein) AFDGTWKVDRNENYEKFMEKMGINVVKRKLGAHDNLKLTITQEGNKFTVKESSNFRNIDVVFELGVDFAYSTAIGTELTGTWTMEGNKLVGKFKRVDNGKELIAVREISGNELIQTYTYEGVEAKRIFKKE | 0.269
16 | 72S 73V 74V (protein, listed as Rattus norvegicus, PEPTIDE (1)...(131) wild-type rat intestinal fatty acid binding protein) AFDGTWKVDRNENYEKFMEKMGINVVKRKLGAHDNLKLTITQEGNKFTVKESSNFRNIDVVFELGVDFAYSSVVGTELTGTWTMEGNKLVGKFKRVDNGKELIAVREISGNELIQTYTYEGVEAKRIFKKE | 0.356

From patent publication US20060257938A1, “Method of screening for drugs that block ligand binding to a lipid binding protein” (priority 2005, published 2006)
